Measured data: PubChem BioAssay AID504808 (Drosophila RNAi Screening Center, 2011)
Test: 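Fly genes required to hold E2F transcription in check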 (primary screen). System: Drosophila S2 cells. Reagent: long dsRNA against Drosophila genes. Measurement: 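Dual luciferase plate measurements; E2F-specific signal taken as firefly over Renilla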. Scale: E2F firefly: higher = more E2F reporter activity; Renilla normaliser: higher = more normaliser reporter signal. Active means: 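a knock-down counted as active when the firefly/Renilla E2F signal rose above 50%, a threshold chosen arbitrarily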.
In all, the deposit lists about 21,000 reagents; below is a random part of those with a known target gene and a result. In the full data, 18 (0.084%) were called active. 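Raw counts without plate normalisation, one of two replicates; the ratio scores behind the calls were not deposited.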 A number with no mark means an inactive call. The record does not give: the amount of reagent, the time to read-out.

With knock-down of CG7091 (GeneID 41590) [DRSC12944], the record shows E2F firefly, rep 1 = 73767; Renilla normaliser, rep 1 = 2315.
CG7091 (GeneID 41590) [DRSC16197] gave E2F firefly, rep 1 = 1.12e5; Renilla normaliser, rep 1 = 5477.
Silencing of CG7031 (GeneID 42704) [DRSC16178] resulted in: E2F firefly, rep 1 = 50166; Renilla normaliser, rep 1 = 4075.
GckIII (GeneID 42064) [DRSC15729] scored E2F firefly, rep 1 = 93543; Renilla normaliser, rep 1 = 6189.
Against CG15022 (GeneID 38549) [DRSC08476], the values are E2F firefly, rep 1 = 72021; Renilla normaliser, rep 1 = 3179.
Depletion of Uba4 (GeneID 34187) [DRSC02194] resulted in: E2F firefly, rep 1 = 1.44e5; Renilla normaliser, rep 1 = 4931.
Against Cdk5alpha (GeneID 34385) [DRSC03290], the entry reads E2F firefly, rep 1 = 1.38e5; Renilla normaliser, rep 1 = 5715.
After knock-down of Tie (GeneID 38559) [DRSC08104], the record shows E2F firefly, rep 1 = 1.10e5; Renilla normaliser, rep 1 = 3825.
Tie (GeneID 38559) [DRSC08702] gave E2F firefly, rep 1 = 99407; Renilla normaliser, rep 1 = 4391.

2 entries from above, showing only “Renilla normaliser, rep 1”:
CG7031 (GeneID 42704) [DRSC16178] = 4075
GckIII (GeneID 42064) [DRSC15729] = 6189

The list goes on.
After knock-down of CHKov2 (GeneID 43068) [DRSC14262], the screen gave E2F firefly, rep 1 = 1727; Renilla normaliser, rep 1 = 1112.
fidipidine (GeneID 36808) [DRSC07618] scored E2F firefly, rep 1 = 1.33e5; Renilla normaliser, rep 1 = 5207.
Against Arv1 (GeneID 318031) [DRSC11491] the deposit lists E2F firefly, rep 1 = 87356; Renilla normaliser, rep 1 = 3858.
La (GeneID 35305) [DRSC03358] scored E2F firefly, rep 1 = 1.14e5; Renilla normaliser, rep 1 = 4799.
Silencing of Ibf2 (GeneID 41102) [DRSC16551] came out at: E2F firefly, rep 1 = 1.37e5; Renilla normaliser, rep 1 = 5906.
Depletion of CG30427 (GeneID 37986) [DRSC04014] came out at: E2F firefly, rep 1 = 1.32e5; Renilla normaliser, rep 1 = 6477.
CG30427 (GeneID 37986) [DRSC04311] scored E2F firefly, rep 1 = 84920; Renilla normaliser, rep 1 = 3511.
Knock-down of CG30427 (GeneID 37986) [DRSC04323] gave: E2F firefly, rep 1 = 97971; Renilla normaliser, rep 1 = 3615.
Silencing of MED20 (GeneID 43952) [DRSC03463] came out at: E2F firefly, rep 1 = 1.15e5; Renilla normaliser, rep 1 = 4851.
CG18766 (GeneID 59150) [DRSC15936] gave E2F firefly, rep 1 = 1492; Renilla normaliser, rep 1 = 852.
